Results deposited as PubChem BioAssay AID1259308 (NCATS, 2017)

Screen: 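Genes whose loss raises luciferase production in HEK293 cells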 (primary screen)
Cell system: human HEK293 embryonic kidney cells stably expressing firefly luciferase (HEK-CMV-Luc2-Hygro)
Knock-down reagent: single siRNA against human genes, 0.8 pmol siRNA per well
Duration: 72 h
Measured: 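Reporter luminescence and viable-cell signal on separate replicate plates, given as percent of non-targeting control and median/MAD z-scores, plus per-cell luciferase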
Scale: total luciferase, z-score and total luciferase, % of control: higher = more reporter protein produced; luciferase per cell, z-score: higher = more reporter output per viable cell; viable cells, % of control: higher = more viable cells
Rule for the call: 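An siRNA counts as active if its total luciferase robust z-score exceeds 3; genes with two or more such siRNAs out of three were retested with fresh siRNAs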
Calls: active = raised luciferase; inactive = no rise
This is an unselected part of about 59,000 reagents. In the full data, about 1,510 (2.6%) were called active. 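Calls use total luciferase alone and ignore viability, so some active siRNAs may act by altering cell number.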 Unmarked entries are inactive. The numbers tell different reagents against one gene apart.

target gene,siRNA no.,"total luciferase, z-score","total luciferase, % of control","luciferase per cell, z-score","viable cells, % of control"
RCN3 (GeneID 57333),1,-0.429,73.4,0.223,77.3
RCN3 (GeneID 57333),2,5.21 (active),186,4.02,71.9
RCN3 (GeneID 57333),3,-1.05,61,-0.962,87.8
CFAP157 (GeneID 286207),1,-0.0651,80.6,-0.287,97.1
CFAP157 (GeneID 286207),2,-0.922,63.5,-0.687,85.1
CFAP157 (GeneID 286207),3,-1.51,51.8,-1.39,83.5
PNMA8A (GeneID 55228),1,0.878,99.4,0.444,98.8
PNMA8A (GeneID 55228),2,0.174,85.3,-0.494,109
PNMA8A (GeneID 55228),3,0.327,88.4,-0.473,112
PAN3 (GeneID 255967),1,1.41,110,1.04,93.3
PAN3 (GeneID 255967),2,-0.0974,80,0.0991,87
PAN3 (GeneID 255967),3,0.217,86.2,0.511,84.2
PRKCI (GeneID 5584),1,0.85,98.8,1.7,70.5
PRKCI (GeneID 5584),2,0.206,86,0.0453,94.9
PRKCI (GeneID 5584),3,1.44,111,0.583,106
OR11L1 (GeneID 391189),1,-0.74,67.2,-0.324,81.8
OR11L1 (GeneID 391189),2,-1.4,54,-0.608,70.8
OR11L1 (GeneID 391189),3,-0.733,67.3,-0.634,88.9
KLRK1 (GeneID 22914),1,-0.711,67.8,-1.23,105
KLRK1 (GeneID 22914),2,-0.0357,81.2,-0.269,97.4
KLRK1 (GeneID 22914),3,-0.457,72.8,-0.267,87.3
NEDD8 (GeneID 4738),1,-0.606,69.8,0.107,75.9
NEDD8 (GeneID 4738),2,-0.575,70.5,0.281,73.1
NEDD8 (GeneID 4738),3,0.263,87.1,0.566,83.9
KLHL24 (GeneID 54800),1,0.214,86.1,0.314,88.6
KLHL24 (GeneID 54800),2,0.73,96.4,0.318,99.1
KLHL24 (GeneID 54800),3,-0.152,78.9,-0.265,94.5
METTL2B (GeneID 55798),1,1.67,115,1.3,91.4
METTL2B (GeneID 55798),2,1.57,113,1.26,90.9
METTL2B (GeneID 55798),3,1.39,110,1.95,73.4
FAM9A (GeneID 171482),1,-1.44,53.3,0.128,57.6
FAM9A (GeneID 171482),2,-2.26,37,-0.547,47.8
FAM9A (GeneID 171482),3,-0.82,65.6,-0.899,92.9
GDF3 (GeneID 9573),1,2.18,125,1.41,96.7
GDF3 (GeneID 9573),2,0.287,87.6,1.14,72.6
GDF3 (GeneID 9573),3,0.237,86.6,0.728,79.9
ROCK2 (GeneID 9475),1,0.283,87.5,0.238,91.8
ROCK2 (GeneID 9475),2,-0.0306,81.3,0.283,84.3
ROCK2 (GeneID 9475),3,-0.804,65.9,-1.06,97.3
LINC02523 (GeneID 643623),1,1.26,107,0.65,101
LINC02523 (GeneID 643623),2,0.422,90.3,0.402,90.7
LINC02523 (GeneID 643623),3,0.0658,83.2,-0.302,101
ST6GALNAC1 (GeneID 55808),1,-0.4,73.9,-0.527,94.9
ST6GALNAC1 (GeneID 55808),2,0.362,89.1,-0.468,113
ST6GALNAC1 (GeneID 55808),3,-0.229,77.3,-0.0862,88.4
RPL23AP2 (GeneID 401904),1,1.32,108,2.09,69.6
RPL23AP2 (GeneID 401904),2,0.405,89.9,1.56,66.7
RPL23AP2 (GeneID 401904),3,0.645,94.7,0.35,96.5
ROBO1 (GeneID 6091),1,0.574,93.3,0.133,101
ROBO1 (GeneID 6091),2,-0.51,71.7,-0.261,85.9
ROBO1 (GeneID 6091),3,0.276,87.4,-0.231,104
TMED10 (GeneID 10972),1,-0.0411,81.1,0.339,82.9
TMED10 (GeneID 10972),2,1.85,119,1.94,79.6
TMED10 (GeneID 10972),3,-0.504,71.9,-0.559,93
SCN2B (GeneID 6327),1,0.599,93.8,0.355,95.5
SCN2B (GeneID 6327),2,-0.38,74.3,-0.541,95.8
SCN2B (GeneID 6327),3,0.993,102,0.121,110

6 entries from above, arranged by “total luciferase, z-score”, descending:
target gene,siRNA no.,"total luciferase, z-score","total luciferase, % of control","luciferase per cell, z-score","viable cells, % of control"
PNMA8A (GeneID 55228),1,0.878,99.4,0.444,98.8
PNMA8A (GeneID 55228),3,0.327,88.4,-0.473,112
PNMA8A (GeneID 55228),2,0.174,85.3,-0.494,109
CFAP157 (GeneID 286207),1,-0.0651,80.6,-0.287,97.1
CFAP157 (GeneID 286207),2,-0.922,63.5,-0.687,85.1
CFAP157 (GeneID 286207),3,-1.51,51.8,-1.39,83.5
